Source: PubChem BioAssay AID1224830 (NIAID, 2016)
This is an unselected part of about 18,000 deposited reagents. In the full data, about 2,900 (16%) got an active call. 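Calls are made per well; low scores hint the gene aids the LPS response, high scores that it dampens it.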 A number with no mark means an inactive call. The numbers tell different reagents against one gene apart. Repeated entries: four replicate wells of each siRNA pool.

Screen: 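Genes whose knock-down alters the TNF-alpha reporter response to LPS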 (primary screen)
Cell system: human THP-1 monocytic leukaemia cells, TNF dual-luciferase reporter clone, PMA-differentiated to macrophage-like cells
Reagents: siRNA pool against human genes, 50 nM
Duration: LPS for 4 h, given about 3 days after siRNA transfection
Challenge: bacterial LPS (TLR4 ligand), 10 ng/ml
Measurement: 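Ratio of firefly to renilla light, scaled to the plate median and expressed as a robust z-score per replicate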
Scale: TNF reporter robust z-score: higher = stronger TNF reporter response to LPS
Active means: 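a well is active when its z-score exceeds 2.8 or falls below -1.5; control wells carry no call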

Gene	reagent	TNF reporter robust z-score
ABCB10	1	-1.18
ABCB10	1	-1.22
ABCB10	1	-1.43
ABCB10	1	-0.84
ARID3A	1	-0.58
ARID3A	1	-0.02
ARID3A	1	-0.53
ARID3A	1	-0.15
SIX1	1	0.63
SIX1	1	0.57
SIX1	1	-0.01
SIX1	1	-0.4
RPS27A	1	-0.83
RPS27A	1	-0.24
RPS27A	1	-0.65
RPS27A	1	-1.11
ZGRF1	1	0.45
ZGRF1	1	1.34
ZGRF1	1	-0.41
ZGRF1	1	0.68
ZGRF1	2	-0.36
ZGRF1	2	-0.89
ZGRF1	2	-0.76
ZGRF1	2	-0.82
ACKR2	1	0.15
ACKR2	1	0.02
ACKR2	1	-0.17
ACKR2	1	0.5
GIPC1	1	-0.69
GIPC1	1	0.05
GIPC1	1	-0.34
GIPC1	1	-0.37
RAB43	1	2.95 (active)
RAB43	1	1.37
RAB43	1	0.03
RAB43	1	0.34
DNAJC19	1	0
DNAJC19	1	-0.64
DNAJC19	1	0.2
DNAJC19	1	-0.09
C4orf17	1	1.45
C4orf17	1	0.36
C4orf17	1	0.14
C4orf17	1	1.3
NOXA1	1	0.42
NOXA1	1	0.02
NOXA1	1	-0.05
KLHL14	1	-0.95
KLHL14	1	-0.2
KLHL14	1	0.14
KLHL14	1	-0.59
SERPINA11	1	0.75
SERPINA11	1	1.02
SERPINA11	1	0.81
SERPINA11	1	-0.21
ACR	1	0.03
ACR	1	1.02
ACR	1	0.26
ACR	1	0.1
HBE1	1	-0.16
HBE1	1	0
HBE1	1	-0.32
HBE1	1	-0.22

Records listed so far called active (1):
Gene	reagent	TNF reporter robust z-score
RAB43	1	2.95 (active)

Further entries follow.
Gene	reagent	TNF reporter robust z-score
EPAS1	1	-1.49
EPAS1	1	-1.41
EPAS1	1	-1.1
EPAS1	1	-0.4
TNFRSF4	1	-1.67 (active)
TNFRSF4	1	-0.89
TNFRSF4	1	-1.05
TNFRSF4	1	-0.31
STON1-GTF2A1L	1	-0.97
STON1-GTF2A1L	1	-0.8
STON1-GTF2A1L	1	0.13
STON1-GTF2A1L	1	-0.91
AFG3L2	1	0.17
AFG3L2	1	1.09
AFG3L2	1	0.59
AFG3L2	1	-0.79
EPS8L3	1	2.39
EPS8L3	1	2.53
EPS8L3	1	-0.76
EPS8L3	1	-0.48
CDKL4	1	-0.54
CDKL4	1	-0.49
CDKL4	1	-0.7
CDKL4	1	-0.09
DEDD	1	-0.16
DEDD	1	-0.83
DEDD	1	-0.9
DEDD	1	-0.97
MYL10	1	0.74
MYL10	1	0.61
MYL10	1	0.08
WWC2	1	-0.22
WWC2	1	-0.11
WWC2	1	0.72
WWC2	1	-0.21
ITGA3	1	1.19
ITGA3	1	0.34
ITGA3	1	0.85
ITGA3	1	0.74
ERO1B	1	0
ERO1B	1	2.23
ERO1B	1	-0.69
ERO1B	1	-0.73
DEFB119	1	-1.14
DEFB119	1	0.25
DEFB119	1	-0.22
DEFB119	1	-0.51
